Measurements from PubChem BioAssay AID504834 (National Center for Advancing Translational Sciences (NCATS), 2011).
Values joined by “and” are separate entries in the source; they are usually repeats but may differ in a detail not shown here. Equal values may be shown once. About 22,000 (6.9%) of roughly 320,000 compounds were called active. This list was built around the results that the source calls inconclusive (neither active nor inactive); the mix of calls is not that of the screen. The call rests on the fitted dose curve; in most records, active means well fitted inhibition curve with a large enough effect; inconclusive means small, poorly fitted or top-dose-only effect, or another doubt; inactive means no such curve, though single readings can be large or run the other way. Where the call is inconclusive, the potency comes from a doubtful curve fit.

Assay: Primary qHTS for delayed death inhibitors of the malarial parasite plastid, 96 hour incubation
Details: P. falciparum luciferase reporter growth; series mostly up to 28.7 µM
Outline: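 Parasite growth measured via integrated firefly luciferase reporter in P. falciparum. Infected erythrocytes at 2% hematocrit, 0.05% parasitemia final were treated 96 hours at 37 C under 5% CO2, and luminescence was read.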
Potency means the concentration at half of the fitted maximal effect.

Compound | Potency
Nc1ccccc1Nc1cccc(C(F)(F)F)c1 | inconclusive: 4.15 µM [inhibitor, single point]
COc1ccc(NC(=S)NCCC2=CCCCC2)cc1OC | inactive
CN(C)C(=O)c1nc2ccccc2s1 | inactive
Cc1cc(C)c(NC(=O)c2cc3c(nc4sccn43)s2)c(C)c1 | inconclusive: 1.04 µM [inhibitor, partial curve, poor fit]
CNC(=O)c1cc(Cl)c(OC)c(OC)c1 | inconclusive: 13.1 µM [inhibitor, single point]
CC[N+](CC)(CC)CC | inconclusive: 11.7 µM [inhibitor, single point] and inconclusive: 4.78 µM [inhibitor, partial curve]
CCN(CC)S(=O)(=O)c1cccc(-c2n[nH]c(=S)n2C)c1 | inconclusive: 11.7 µM [inhibitor, single point]
CC(=O)Nc1ccc(OCC(O)Cn2nc(C)c(C)c2C)cc1 (stereo unspecified) | active: 10.4 µM
COc1ccc(/C=C/C(=O)NC(=S)NNC(=O)c2cc(OC)c(OC)c(OC)c2)cc1OC | inconclusive: 5.22 µM [inhibitor, partial curve, poor fit]
CC1(CN2CCC(n3c(=O)[nH]c4ccccc43)CC2)OCc2ccccc2-n2cccc21 (stereo unspecified) | active: 13.5 µM
CCCN(CC(=O)Nc1ccccc1OC)C(=O)Cc1ccc2c(c1)CCC2 | inconclusive: 10.4 µM [inhibitor, single point]
Cc1c2cccn2cc[n+]1C | inconclusive: 5.22 µM [inhibitor, partial curve]
CCOc1ccc(NS(=O)(=O)c2cc(C(=O)N(CC)CC(=O)NCc3cccs3)ccc2C)cc1 | inconclusive: 8.28 µM [inhibitor, partial curve, poor fit]
CCOC(=O)[C@@H]1[C@H]2COc3cc(OC)ccc3[C@H]2N2C(=O)N(c3cccc(Cl)c3)C(=O)[C@@]12C | inconclusive: 3.7 µM [inhibitor, full curve, poor fit]
CCc1ccccc1N1C(=O)NC(=O)/C(=C\c2cc(C)n(C)c2C)C1=O | inconclusive: 13.1 µM [inhibitor, partial curve, poor fit]
CCc1cc2c(=O)n(CCCOC)c(SCC(=O)Nc3oc(C)c4c(C)n[nH]c(=O)c34)nc2s1 | inconclusive: 13.1 µM [inhibitor, single point]
O=C(COC(=O)CSc1ccccc1)NNC(=O)c1ccc([N+](=O)[O-])cc1 | inconclusive: 18.5 µM [inhibitor, single point]
CCc1ccc(-n2c(=O)c3c(C)c(C(=O)N(C)C)sc3n(CC(=O)NCc3ccco3)c2=O)cc1 | inconclusive: 0.0522 µM [inhibitor, full curve, poor fit]
CN(C)CC(CCCCC(CN(C)C)C(=O)c1ccccc1)C(=O)c1ccccc1 (stereo unspecified) | inconclusive: 11.7 µM [inhibitor, partial curve, poor fit]
COc1ccc(CNC(=O)COC(=O)C2=COCCO2)cc1 | inconclusive: 18.5 µM [inhibitor, single point]
CC(=O)O[C@]1(C(C)=O)CC[C@H]2[C@@H]3C=C(C)C4=CC(=O)CC[C@@H]4[C@H]3CC[C@@]21C | inconclusive: 14.7 µM [inhibitor, single point]
O=C(CCc1ccccc1)NNC(=O)COc1ccc([N+](=O)[O-])cc1 | inconclusive: 0.828 µM [inhibitor, partial curve]

Compound | Potency
O=C1CC(c2cccc(F)c2)SC(N(c2ccccc2)c2ccccc2)=N1 (stereo unspecified) | inconclusive: 0.0738 µM [inhibitor, full curve, poor fit]
COC(=O)c1cccc(N(C(=O)c2ccco2)C(C(=O)NC2CCCC2)c2ccco2)c1 (stereo unspecified) | inconclusive: 11.7 µM [inhibitor, single point]
CN(C)c1ccc2c(c1)OC(N)=C(C#N)C2c1cccc(F)c1 (stereo unspecified) | inconclusive: 11.7 µM [inhibitor, single point]
O=C(Nc1cccc2ccccc12)NC1Cc2ccccc2C1 | inconclusive: 7.38 µM [inhibitor, partial curve, poor fit]
CCCOc1ccc(N2C(=O)CC(SCc3nc4ccccc4[nH]3)C2=O)cc1 (stereo unspecified) | inactive
CCOC(=O)c1cc(C)nc(S(C)(=O)=O)c1C#N | inconclusive: 1.31 µM [inhibitor, partial curve]
Cn1cc(CN(Cc2ccccn2)C[C@@H]2CCC(=O)N2)c(-c2ccccc2F)n1 | inconclusive: 18.5 µM [inhibitor, single point]
COc1ccc(OCCN2C(=O)c3ccccc3C2=O)c([N+](=O)[O-])c1 | inactive
COc1ccc(C(=O)NCC(=O)OCc2ccccc2F)cc1 | inactive
CCc1nnc(NC(=O)c2cccs2)s1 | inconclusive: 5.22 µM [inhibitor, partial curve, poor fit]
Cc1cc(-c2nnc(CCC(=O)NCC(C)c3ccccc3)o2)no1 (stereo unspecified) | inactive
CCCCC1=CC2=CC(=O)C(C)(OC(=O)CC)C(=O)C2=CN1C1CCCC1 (stereo unspecified) | inconclusive: 10.4 µM [inhibitor, single point]
Cc1c(OC(C(=O)O)c2ccccc2)ccc2c(-c3ccccc3)cc(=O)oc12 (stereo unspecified) | inactive
COC(=O)CSC1=C(C#N)C(c2ccc3c(c2)OCO3)C2=C(CCCC2=O)N1 (stereo unspecified) | inconclusive: 2.08 µM [inhibitor, partial curve, poor fit]
O=C(C1CCN(S(=O)(=O)c2cccs2)CC1)N1CCCCCC1 | inconclusive: 10.4 µM [inhibitor, single point]
S=C(N/N=C/c1ccco1)NC1CC2CCC1C2 (stereo unspecified) | active: 5.22 µM
COc1ccc(C2CC(c3ccccc3OC(C)=O)=NN2C(=O)/C=C/c2ccccc2)cc1 (stereo unspecified) | inconclusive: 18.5 µM [inhibitor, single point]
Cc1cc(C(=O)CSc2nnc(-c3cccnc3)n2-c2ccccc2)c(C)n1CC1CCCO1 (stereo unspecified) | inconclusive: 18.5 µM [inhibitor, single point]
CCOC(=O)C1CCCN(S(=O)(=O)c2cc(Br)cc3c2N(C(C)=O)CC3)C1 (stereo unspecified) | inconclusive: 18.5 µM [inhibitor, single point]
CCOc1ccc(NC(=O)CCN2CCN(c3ccccc3F)CC2)cc1 | inconclusive: 0.415 µM [inhibitor, full curve, poor fit]
COc1cc2c(cc1OC)CN(C(=O)c1ccc(N3CCCC3)c([N+](=O)[O-])c1)CC2 | inconclusive: 5.22 µM [inhibitor, partial curve]
COc1ccccc1NC(=O)c1ccc(-c2nn(C)c(=O)c3ccccc23)cc1 | inconclusive: 11.7 µM [inhibitor, single point]

Compound | Potency
CCOC(=O)C1CCCN(CCC(=O)Nc2c(C(=O)OC)[nH]c3cc(OC)ccc23)C1 (stereo unspecified) | inconclusive: 2.62 µM [inhibitor, full curve, poor fit]
COc1cc(NC(=O)CN2C(=O)C(=O)N(CC(C)C)C2=O)cc(OC)c1 | inactive
Cc1ccc(C)c(NC(=O)CNS(=O)(=O)c2ccccc2)c1 | inconclusive: 18.5 µM [inhibitor, single point]
COc1ccc(NC(=O)c2ccccc2Oc2ccccc2)cc1 | inconclusive: 18.5 µM [inhibitor, single point]
Cc1ccc(N2C(=O)C3C(C(=O)c4ccccc4)=NN(c4ccccc4)C3C2=O)cc1 (stereo unspecified) | inactive
Cc1noc(/C=C/c2ccco2)c1S(=O)(=O)N1CCC(C(=O)Nc2ccc(Cl)cn2)CC1 | inconclusive: 11.7 µM [inhibitor, single point]
COc1cccc(-n2nnnc2S(C)(=O)=O)c1 | inconclusive: 10.4 µM [inhibitor, single point]
O=C(Cc1ccccc1)Nc1ccc(NC(=S)NC(=O)c2ccccc2)cc1 | inconclusive: 18.5 µM [inhibitor, single point]
CCCCn1c(N)c(-c2nc3ccccc3s2)c2c([N+](=O)[O-])nn(C)c(=O)c21 | inconclusive: 2.33 µM [inhibitor, full curve, poor fit]
CCn1cc(Br)c(C(=O)Nc2nccs2)n1 | inactive
NC(=O)CC(NC(=O)c1cccc(Br)c1)c1ccc(NC2CCC2)c([N+](=O)[O-])c1 (stereo unspecified) | inactive
Cc1cccc(N(C)C(=O)CN(C)S(=O)(=O)c2ccc3c(c2)c(=O)n(C)c(=O)n3C)c1 | inconclusive: 18.5 µM [inhibitor, single point]
OC1(C#CCN2CCOCC2)CCCCC1 | inactive
O=C(CN1CCOCC1)N1CCCc2ccccc21 | inconclusive: 18.5 µM [inhibitor, single point]
CCCOc1ccc(NC(=O)OC2CCN(C)CC2)cc1 | inconclusive: 10.4 µM [inhibitor, single point]
CN(C)S(=O)(=O)c1cccc(NC(=O)/C=C/c2ccc(S(=O)(=O)N3CCOCC3)cc2)c1 | inconclusive: 11.7 µM [inhibitor, partial curve, poor fit]
CC(=O)N(Cc1cccnc1)c1cccc(-c2nc3ccccc3s2)c1 | inactive
COc1ccc(Nc2nnc(SCC(=O)N3CC(=O)Nc4ccccc43)s2)cc1 | active: 2.33 µM
Cn1cc([N+](=O)[O-])c(C(=O)N/N=C\c2c[nH]c3ccccc23)n1 | inactive
C[C@@H](O)[C@H]1O[C@]2(C)CCC[C@H]1O2 | inactive
COc1cccc(CNC(=O)CCCn2ncn3c(cc4occc43)c2=O)c1 | active: 4.65 µM
CN1CCN(CCCN2c3ccccc3Sc3ccc(S(=O)(=O)N(C)C)cc32)CC1 | active: 3.61 µM
